Consider 57 compounds from PubChem BioAssay AID2685 (National Center for Advancing Translational Sciences (NCATS), 2010).

This is one part of the list. Further columns of the screen follow, without active or inactive calls. Compounds called inactive in the main read-out are mostly missing here. Potencies come from curve fits of mixed quality, noted in brackets.

The test is described as follows: qHTS Assay for Lipid Storage Modulators in Drosophila S3 Cells.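 On cell number change: cells counted by Cell Tracker Red CMTPX staining in the red channel.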 To be noted: BODIPY lipid droplet fluorescence, 18-24 h; for cell number change: measured here: cell count max response, cells fed with added oleic acid. In a few lines:
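Laser-scanning cytometry quantifies lipid droplet accumulation (500–530 nm total intensity; droplet/cell object ratio) in oleic acid-fed (400 uM added) Drosophila S3 cells treated with a concentration series. 20 uM Triacsin C defined 100% inhibition.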

The mark [1] stands for this setting: measured here: cell number channel AC50, cells fed with added oleic acid.
Setting [2] is: measured here: lipid fluorescence (Fed channel) AC50, cells fed with added oleic acid.

Regarding `CC(C)(C)OC(=O)Nc1ccc([C@H](NC(=O)OC(C)(C)C)C(=O)OC(C)(C)C)cc1`, the cell number change came to 0.194%. The AC50 under setting [1] is 1.03 µM [falling, single point]. In the case of `O=C(N/C=N/OCc1cccc(C(F)(F)F)c1)N1OC[C@@H]2COc3ccc4ccccc4c3[C@@H]21`, the cell number change came to 22.3%. In addition, the AC50 under setting [2] is 2.91 µM [falling, partial curve].

On to `O=C(NC1CC(=O)N(c2cccc(F)c2)C1)N1CCN(C(=O)c2ccco2)CC1` (configuration not stated), for which the cell number change is -9.01%. Under setting [2], the concentration at half-maximal activity (AC50) is 14.6 µM [rising, partial curve]. On to `COC(=O)C1=C(C)N=c2s/c(=C/c3ccoc3)c(=O)n2C1c1ccccc1` (configuration not stated), for which the AC50 reads like this: under setting [1], 0.259 µM [rising, full curve, poor fit]; under setting [2], 3.66 µM [falling, partial curve]. In the case of `Cc1ccc(O)c(NC(=O)C2CC(c3cccc(Br)c3)=NO2)c1` (configuration not stated), the cell number change was found to be 18.2%. Besides, under setting [1], the AC50 is 0.517 µM [rising, partial curve, poor fit]. Besides, the AC50 under setting [2] was 16.4 µM [rising, single point]. In the case of `Cc1c(NC(=O)Cn2[nH]c(=O)c3ccccc3c2=O)c(=O)n(-c2ccccc2)n1C`, the cell number change is -4.59%. Moreover, the AC50 under setting [1] was 0.146 µM [falling, full curve]. On to `Cc1ccc2c(c1)C(c1ccc(N3CCOCC3)cc1)=NNC(c1cccs1)=N2`, for which the cell number change was determined as 15%.

Turning to `CN(Cc1ccc(Cl)cc1)C(=O)COC(=O)CSc1ccc([N+](=O)[O-])cc1`, the cell number change was -24.5%. Moreover, the AC50 under setting [2] was 1.84 µM [falling, single point].

Regarding `C=CCOc1ccccc1CNc1ccc2[nH]c(=O)[nH]c2c1`, the cell number change came to 6.04%.

Take `O=[n+]1cc(-c2ccc(F)cc2)n([O-])c2c1CCC2`: the cell number change is -199%. Further, the AC50 under setting [1] is 29.1 µM [falling, single point]. In addition, the AC50 under setting [2] was 16.4 µM [falling, partial curve]. Consider `CCCOc1ccc(N2C(=O)CC(SC(=NC)Nc3ccc(F)cc3)C2=O)cc1` (configuration not stated), for which the cell number change came to 7.46%. Further, the AC50 under setting [2] was 6.51 µM [rising, single point]. For `CCc1nnc(NC(=O)CS(=O)(=O)Cc2ccccc2)s1`, the cell number change was found to be 12.5%. Moreover, the AC50 under setting [2] is 4.11 µM [rising, full curve].

For the compound `NC(=O)CC1C(=O)N(c2ccc(F)cc2)C(=O)N1NC(=O)CCc1ccccc1` (configuration not stated), the cell number change worked out at 19.4%. The AC50 under setting [2] is 11.6 µM [falling, partial curve]. `CCCCNC(=O)CSc1nc2cc3c(cc2c(=O)n1Cc1ccco1)OCO3`: the cell number change came out at 46.6%. For the same compound, the AC50 under setting [1] is 6.51 µM [rising, full curve]. Further, the AC50 under setting [2] was 5.17 µM [rising, full curve]. In the case of `Cc1ccc2[nH]c(-c3ccccc3)cc(=O)c2c1`, the cell number change was -6.66%. Under setting [2], the AC50 is 18.4 µM [rising, single point]. As for `O=C(O)c1ccccc1-c1ccccc1C(=O)NNc1ccc([N+](=O)[O-])cc1`, the cell number change turned out to be 12.8%. For `COC(=O)C1=C(C)NC2=C(C(=O)CCC2)C1c1cn(Cc2ccc(Br)cc2)nc1-c1ccccc1` (configuration not stated), the cell number change was determined as 25.4%. Also, under setting [2], the AC50 was 18.4 µM [rising, single point]. For the compound `COC(=O)c1c(-c2ccc(OC)c(OC)c2)csc1N`, the cell number change was -1.21%. Also, under setting [2], the AC50 was 0.366 µM [rising, partial curve, poor fit].

Regarding `CC(=O)c1ccc(-c2ccc(C(=O)N3CCCc4ccccc43)o2)cc1`, the cell number change amounted to 21%.

With `COc1ccccc1N1CCN(S(=O)(=O)c2c(C)[nH]c(C)c2C(=O)N2CCCCC2)CC1`, the cell number change worked out at 53.3%. For the same compound, the AC50 under setting [1] is 29.1 µM [rising, single point]. Besides, the AC50 under setting [2] was 29.1 µM [rising, single point]. For `c1ccc(N2CCOCCOCCOCCOCC2)cc1`, the cell number change turned out to be 2.3%. Further, the AC50 under setting [2] was 0.00461 µM [falling, full curve, poor fit]. As for `Cc1ccc2occ(C(c3nnnn3Cc3ccccc3)N3CCOCC3)c(=O)c2c1` (configuration not stated), the cell number change turned out to be 44%. Besides, under setting [1], the AC50 is 5.17 µM [rising, full curve]. Also, under setting [2], the AC50 was 6.51 µM [rising, partial curve, poor fit].

On to `Cc1nc(=O)c(-c2ccccc2)c(C)n1CC1CCCO1` (configuration not stated), for which the cell number change was -6.48%. Also, the AC50 under setting [2] was 2.31 µM [rising, full curve]. For the compound `O=CN1CCN(C(=O)CC(c2ccccc2)c2cc(Br)ccc2O)CC1` (configuration not stated), the cell number change was -32.8%. Moreover, the AC50 under setting [1] was 29.1 µM [falling, single point]. For the same compound, the AC50 under setting [2] was 23.1 µM [falling, single point]. On to `CCC(C)c1ccccc1O` (configuration not stated), for which the cell number change was -1.92%. The AC50 under setting [2] was 29.1 µM [rising, single point].

As for `CCC(=O)N1CCN(c2ccccc2NC(=O)c2ccc([N+](=O)[O-])o2)CC1`, the AC50 under setting [2] was 11.6 µM [falling, partial curve].

`COc1ccccc1/C=C/C(=O)OCCN1CCOCC1`: the cell number change came to 31.7%. Besides, the AC50 under setting [1] is 14.6 µM [rising, partial curve, poor fit]. The AC50 under setting [2] is 11.6 µM [rising, partial curve]. With `CC1CCN(S(=O)(=O)c2ccc(C(=O)OCc3ccc4c(c3)OCO4)cc2)CC1`, the cell number change is -79.9%. The AC50 under setting [1] was 32.6 µM [falling, partial curve, poor fit]. On to `COc1ccc(-c2nnc(SCc3ccccc3F)o2)cc1`, for which the AC50 is, setting by setting: under setting [1], 6.51 µM [rising, single point]; under setting [2], 20.6 µM [rising, partial curve]. Take `COc1ccc(/C=C/C(=O)NCc2nc3ccccc3[nH]2)cc1OC`: under setting [2], the AC50 was 4.61 µM [falling, single point]. Take `Cn1c(/C(C#N)=C/C2CC=CCC2)nc2ccccc21` (configuration not stated): the AC50 under setting [1] is 0.92 µM [rising, partial curve]. For `O=c1oc2ccccc2cc1-c1ccc(O)cc1`, the cell number change was -5.1%. For the compound `COc1ccc(N(CC(=O)N2CCN(Cc3ccccc3)CC2)S(C)(=O)=O)cc1OC`, the cell number change is -15.1%. Moreover, the AC50 under setting [2] was 0.092 µM [falling, full curve, poor fit]. For `COc1ccc(NC(=O)CSc2nc(N)cc(=O)[nH]2)cc1S(=O)(=O)N1CCCCC1`, the cell number change worked out at 2.86%. Also, under setting [2], the AC50 is 18.4 µM [rising, single point].

As to `CCCNC(=O)[C@H]1N2C(=O)c3c(ccc(OC)c3OC)C2SC1(C)C` (some centres not stated), the cell number change was -11.9%. Besides, the AC50 under setting [2] is 23.1 µM [falling, single point]. Consider `Cc1nc2c(sc3nc(N4CCOCC4)c4c(c32)CC(C)(C)OC4)c(-c2ccc(Cl)cc2)c1C(=O)O`, for which the AC50 under setting [2] is 10.3 µM [falling, partial curve]. With `CCCn1c(C(CO)Nc2nc(-c3cccc(Br)c3)cs2)nc2ccccc21` (configuration not stated), the cell number change was -19.8%. Also, under setting [2], the AC50 was 29.1 µM [falling, single point]. For `CC[C@@]12C(=O)N(c3ccccc3)C(=O)N1[C@H](c1ccc(OC)cc1)[C@@H]1C(=O)N(C(C)(C)C)C(=O)[C@@H]12`, the cell number change is -1.39%. In addition, under setting [2], the AC50 was 0.13 µM [falling, full curve, poor fit]. For `COc1cc(CNn2nnnc2N)cc(Br)c1OCc1c(Cl)cccc1Cl`, the cell number change was 12%. For the same compound, the AC50 under setting [2] is 29.1 µM [rising, single point].

Regarding `Cc1c(C(=O)NCCNc2ncc(C(F)(F)F)cc2Cl)cccc1[N+](=O)[O-]`, the cell number change was 2.78%. Also, the AC50 under setting [2] is 6.51 µM [falling, single point].

On to `Cc1n[nH]c(=S)n(NC(=O)/C=C/C(=O)Nn2c(=S)[nH]nc(C)c2=O)c1=O`, for which the cell number change is 46.7%. Moreover, the concentration at half-maximal activity (AC50) under setting [2] was 0.146 µM [falling, full curve, poor fit]. As for `Cc1cnc(NC(=O)C2CC=CCC2)s1` (configuration not stated), the cell number change turned out to be 2.52%. Besides, the AC50 under setting [2] is 0.116 µM [falling, partial curve, poor fit]. For the compound `O=C(NNC(=O)c1cc(-c2ccncc2)nc2ccccc12)c1cccc(Cl)c1`, the cell number change is -18.5%. Moreover, the AC50 under setting [1] was 2.91 µM [rising, single point]. In addition, the AC50 under setting [2] was 29.1 µM [falling, single point]. `Cc1cc(O)ccc1NC(=O)CCN1C(=O)c2ccc([N+](=O)[O-])cc2C1=O`: the cell number change was -14.1%. In addition, the AC50 under setting [2] is 0.092 µM [falling, full curve, poor fit].

As to `COc1cc(C(=O)Nc2cccc(C)n2)ccc1OCC(=O)N1CCOCC1`, the cell number change is -3.63%. Moreover, the AC50 under setting [2] was 29.1 µM [falling, single point]. In the case of `Cc1ccc(NC(=O)COC(=O)CN2CCCCCC2=O)cc1C`, the cell number change was -0.413%. Further, the AC50 under setting [2] was 0.164 µM [falling, full curve, poor fit]. Take `CCOc1ccc(/C=N/Nc2ccccn2)cc1OC`: the cell number change came out at 39.2%. In addition, the AC50 under setting [2] was 0.58 µM [rising, single point]. For the compound `COc1ccc([C@H]2CC(=O)C=C(c3ccnc4ccc(Cl)cc34)C2)cc1`, the cell number change was -49.3%. Besides, under setting [1], the AC50 was 9.2 µM [falling, single point]. For the same compound, the AC50 under setting [2] was 29.1 µM [falling, partial curve, poor fit].

For the compound `O=C(Cn1cnc2cc([N+](=O)[O-])ccc2c1=O)NCc1ccccc1`, the cell number change was determined as 30.6%. Take `CCOc1ccc(OCC)c(NC(=O)CSCCc2ccccn2)c1`: under setting [1], the AC50 is 0.651 µM [falling, single point]. With `CCOC(=O)N1CCN(C(=O)c2ccccc2-c2ccccc2)CC1`, the cell number change is -18.7%. Besides, the AC50 under setting [2] is 9.2 µM [falling, single point]. Regarding `Cc1cc(/C=N/n2cnnc2)c(C)n1-c1ccc(C(=O)O)cc1`, the cell number change was found to be 11%. Moreover, the AC50 under setting [2] is 0.13 µM [rising, full curve, poor fit].

`CC(C)c1nnc(NC(=O)CCC(=O)N2CCN(c3ccc(F)cc3)CC2)s1`: the cell number change is -16.2%. For the same compound, the AC50 under setting [1] was 2.91 µM [falling, partial curve, poor fit]. Consider `CC(C)(C)c1ccc(-c2nc3n(c(=O)c2C#N)CCS3)cc1`, for which the cell number change is -37.7%. For the same compound, the AC50 under setting [1] is 23.1 µM [falling, single point]. Regarding `Cc1ccc2cc(CNC(C)(C)C)c(=O)[nH]c2c1`, the cell number change turned out to be 19.2%. For the same compound, the AC50 under setting [2] was 2.31 µM [falling, partial curve]. In the case of `Cc1cc(C)c2[nH]c(=O)c(CN(Cc3cccs3)C(=S)NCC3CCCO3)cc2c1` (configuration not stated), the cell number change was determined as 27.4%. Besides, the AC50 under setting [1] was 1.84 µM [rising, full curve, poor fit]. For the same compound, the AC50 under setting [2] is 0.651 µM [rising, partial curve].

For `CC(=O)Nc1nc(C)nc(C)c1C(C)=O`, the AC50 under setting [2] was 6.51 µM [falling, single point].
